# Reference: PubChem BioAssay AID624297 (National Center for Advancing Translational Sciences (NCATS), 2012)
# About 6,200 (1.8%) of roughly 340,000 compounds were called active. This list was built around the results that the source calls inconclusive (neither active nor inactive); the mix of calls is not that of the screen. The call rests on the fitted dose curve; in most records, active means well fitted activation curve with a large enough effect; inconclusive means small, poorly fitted or top-dose-only effect; inactive means no such curve, though single readings can be large or run the other way. Where the call is inconclusive, the potency comes from a doubtful curve fit.
# Experiment: A quantitative high throughput screen for small molecules that induce DNA re-replication in SW480 colon adenocarcinoma cells. Further: nearly all actives have a fitted effect of over 55% in size. On re-replication activation: % of control where 0% means no effect.
# Conditions: Hoechst DNA content imaging, 48 h; re-replication activation: at 46.1 µM (top of the series) unless noted
# In short: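 Cells (250 per well) received 23 nL compound or DMSO by pin tool and were kept 48 hr at 37 C, 5% CO2. Nuclei were then stained with Hoechst for 40 min and scanned for DNA content.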
# Potency means the concentration at half of the fitted maximal effect.
SMILES,Potency,re-replication activation
O=C(CSc1ccccn1)N/N=C/c1cc([N+](=O)[O-])ccc1O,"inconclusive: 18.4 µM [activator, single point]",
Oc1ccc(CNc2ccccc2F)c2cccnc12,"inconclusive: 18.4 µM [activator, single point]",
CCOC(=O)C1=C(c2ccccc2)NC(N)=NC1c1ccc(OCc2ccc(Cl)cc2)c(OC)c1 (stereo not drawn),"inconclusive: 23.1 µM [activator, single point]",
CCCN(CC1CC1)C(=O)CSc1nnc(-c2cc(-c3cccs3)nc3ccccc23)o1,,inactive: 1.14%
S=C(NCCc1ccccc1)N/N=C/c1cccs1,"inconclusive: 0.651 µM [activator, partial curve, poor fit]",
COCC(=O)Nc1cc(Sc2ccccc2)ccc1N=C(NC(=O)OC)NC(=O)OC,active: 16.8 µM,
CCn1c(SCC(=O)N2CCCC(C)C2)nc2c1c(=O)n(C)c(=O)n2C (stereo not drawn),"inconclusive: 9.2 µM [activator, partial curve, poor fit]",
CCc1nc(SCC(=O)N2CCc3ccccc32)c2oc3ccccc3c2n1,,inactive: 14%
CC(=O)Nc1ccc(Oc2nc(-c3ccccn3)nc3ccccc23)cc1,"inconclusive: 29.1 µM [activator, single point]",
COc1cccc(NC(=O)c2cc(-c3ccc(C)o3)nc3ccccc23)c1,"inconclusive: 29.1 µM [activator, single point]",
Cc1ccc2c(c1)C1CN(C)CCC1N2Sc1ccccc1[N+](=O)[O-] (stereo not drawn),"inconclusive: 29.1 µM [activator, single point]",
C[C@H]1COc2c(N3CCN(C)CC3)c(F)cc3c(=O)c(C(=O)O)cn1c23,"inconclusive: 1.26 µM [activator, single point]",
Cc1ccc(C2=NOC3(CC(=O)N(c4ccc(C)cc4)C3=O)C2)cc1 (stereo not drawn),,inactive: -4.62% [at 9.22 µM]
CC1=C(C(=O)OCCNC(=O)c2ccccc2O)C(c2ccccc2[N+](=O)[O-])C(C(=O)OCC2CCCO2)=C(C)N1 (stereo not drawn),"inconclusive: 13 µM [activator, partial curve]",
COC(=O)c1cc(COc2ccc3oc(C)c(C(=O)OC)c3c2)c(C)o1,active: 18.4 µM,
COc1ccccc1NC(=O)CN1CCN(CC(=O)Nc2cc(C)ccc2OC)CC1,,inactive: -5.59%
CCOc1cc(/C=C2/NC(=O)NC2=O)cc([N+](=O)[O-])c1O,,inactive: -14.3%
COC(=O)c1ccccc1S(=O)(=O)N1CCC(C(=O)OCC(=O)c2ccccc2OC)CC1,,inactive: -3.95%
CCOC(=O)c1c(-c2ccccc2)csc1NC(=S)NC,"inconclusive: 25.9 µM [activator, single point]",
N#Cc1cc2sc3nnc(-c4ccncc4)n3c2cc1C#N,,inactive: -33% [at 9.22 µM]
CCOc1ccc(NC(=O)c2cccc3ccccc23)cc1,"inconclusive: 23.1 µM [activator, single point]",
Clc1ccc2ccc3cccnc3c2n1,,inactive: 20.3%
COc1ccccc1N(Cc1ccccc1)S(=O)(=O)c1cccc(C(=O)NC2CC(C)(C)NC(C)(C)C2)c1,"inconclusive: 18.4 µM [activator, single point]",

SMILES,Potency,re-replication activation
NC(=O)c1nsc(C(=O)N(CC(=O)NC2CCCCC2)c2ccc(Cl)cc2)c1N,,inactive: -2.21%
C/C(=N\Nc1nccnc1Cl)c1ccc(O)c(C)c1,"inconclusive: 23.1 µM [activator, single point]",
O=S(=O)(Nc1c(F)cccc1F)c1ccc(Cl)nc1,active: 0.92 µM,
COc1ccccc1OCC(O)Cn1c(=N)n(CCN2CCCCC2)c2ccccc21 (stereo not drawn),"inconclusive: 20.6 µM [activator, single point]",
O=C(Nc1nnc(-c2cccs2)o1)c1ccc(S(=O)(=O)N2CCOCC2)cc1,,inactive: 13.8%
O=C(Nc1nc(-c2ccccc2)cs1)c1ccco1,,inactive: -5.17%
Oc1ccccc1/C=N/Nc1cc(N2CCCC2)nc(N2CCCC2)n1,"inconclusive: 20.6 µM [activator, single point]",
CCc1nnc(NC(=O)CC23CC4CC(CC(C4)C2)C3)s1,,inactive: -2.35%
CCOC(=O)c1cc(C(C)C)sc1NC(=O)COC(=O)CCS(=O)(=O)c1ccccc1,"inconclusive: 2.31 µM [activator, full curve, poor fit]",
O=C(CSc1cccc[n+]1[O-])Nc1ccccc1Oc1ccccc1,"inconclusive: 3.26 µM [activator, full curve, poor fit]",
N#Cc1ccccc1COC(=O)CCCC1=NS(=O)(=O)c2ccccc2N1,"inconclusive: 6.51 µM [activator, single point]",
CCOC(=O)C(NC(=O)c1ccccc1Cl)(Nc1ccc(C)c(C)c1)C(F)(F)F (stereo not drawn),active: 4.11 µM,
CC1CCCCC1NC(=O)C(C)N1C(=O)c2ccccc2C1=O (stereo not drawn),"inconclusive: 0.731 µM [activator, partial curve, poor fit]",
O=C(COC(=O)c1ccc2c(=O)n3c(nc2c1)CCC3)Nc1ccccc1F,"inconclusive: 5.17 µM [activator, full curve, poor fit]",
Cc1[nH]ncc1-c1ccccc1Cl,"inconclusive: 6.51 µM [activator, single point]",
CC(=O)c1ccc2noc(-c3ccc(F)cc3)c2c1,,inactive: -4.58%
COc1ccc(CNC(=O)c2cc(-c3cc(C)cc(C)c3O)n[nH]2)cc1,"inconclusive: 20.6 µM [activator, single point]",
N=c1n(CC(=O)c2ccc([N+](=O)[O-])cc2)c2ccccc2n1Cc1ccccc1,"inconclusive: 18.4 µM [activator, single point]",
CCn1c(=N)n(CC(O)c2ccccc2)c2ccccc21 (stereo not drawn),"inconclusive: 6.51 µM [activator, partial curve]",
c1ccc(NN=C2c3ccccc3-c3ccccc32)cc1,"inconclusive: 29.1 µM [activator, single point]",
COc1ccc(C2C(C#N)=C(N)N(c3cccnc3)C3=C2C(=O)CCC3)cc1Cn1cc([N+](=O)[O-])cn1 (stereo not drawn),"inconclusive: 17.8 µM [activator, single point]",
O=C(CSc1nc2ccccc2c(=O)n1Cc1ccco1)NCCN1C(=O)CSC1=O,"inconclusive: 14.6 µM [activator, single point]",
CN1CCN(c2ccccc2NC(=O)c2ccc(OCc3ccccc3)cc2)CC1,"inconclusive: 32.6 µM [activator, partial curve, poor fit]",

SMILES,Potency,re-replication activation
CCn1c2ccccc2c2c3ncc4cccn4c3ccc21,"inconclusive: 3.26 µM [activator, partial curve, poor fit]",
COc1ccc(C2=NCCc3cc(OC)c(OC)cc32)cc1OC,,inactive: 59.4%
Cc1onc(-c2ccccc2Cl)c1C(=O)O/N=C(\N)c1ccc([N+](=O)[O-])o1,,inactive: 16.7%
CC(=O)N1c2ccc(S(=O)(=O)NCCC(=O)NCc3ccc(F)cc3)cc2CC1C (stereo not drawn),,inactive: -2.3%
O=C(CCN1C(=O)c2ccccc2C1=O)N1CCN(Cc2ccc(Cl)cc2Cl)CC1,,inactive: 5.48%
Cc1ccc(C(CC(=O)c2ccco2)SCCO)cc1 (stereo not drawn),"inconclusive: 25.1 µM [activator, single point]",
CCOc1cc(/C=C/C(=O)c2ccc(OC)c(CN3CCOCC3)c2)cc(Br)c1O,"inconclusive: 20.6 µM [activator, single point]",
Cc1ccc(C23CC4CC(CC(C(=O)OCC(=O)NC5CCS(=O)(=O)C5)(C4)C2)C3)cc1 (stereo not drawn),,inactive: -4.12%
CC1CCc2c(sc(NC(=O)CCC(=O)O)c2C(=O)NC2CC2)C1 (stereo not drawn),"inconclusive: 14.6 µM [activator, partial curve]",
CCCCCn1c(=O)[nH]c2cc(C(=O)NCCCN3CCCCC3)ccc2c1=O,"inconclusive: 29.1 µM [activator, single point]",
Cc1ccc(S(=O)(=O)OCCC2=CC(=O)CCN2Cc2ccccc2)cc1,,inactive: -10.4%
CC(C)NS(=O)(=O)c1ccc(NC(=O)C(C)OC(=O)CCC2CCCC2)cc1 (stereo not drawn),"inconclusive: 29.1 µM [activator, single point]",
Cc1ccc(NC(=O)c2cc(N3C(=O)C=CC3=O)ccc2Cl)cc1C,"inconclusive: 29.1 µM [activator, single point]",
O=C(CSc1nc2ccccc2c(=O)n1-c1ccc(F)cc1F)Nc1ccc(N2CCOCC2)cc1,"inconclusive: 0.164 µM [activator, full curve, poor fit]",
CC1CCN(CCc2nc3cc(NS(=O)(=O)c4ccccc4)ccc3n2C)CC1,"inconclusive: 29.1 µM [activator, single point]",
COC(=O)c1cc(S(=O)(=O)NCCN2CCOCC2)cn1C,"inconclusive: 20.6 µM [activator, single point]",
O=C(Cn1cnc2c(oc3nc4c(cc32)CCCC4)c1=O)Nc1cccc(Cl)c1,"inconclusive: 16.4 µM [activator, partial curve, poor fit]",
S=C(NCc1ccncc1)Nc1cc(Cl)cc(Cl)c1,"inconclusive: 29.1 µM [activator, single point]",
C[C@]12c3[nH]c4ccc(Cl)cc4c3CCN1C(=O)[C@@H](CC(=O)NCC13CC4CC(CC(C4)C1)C3)C[C@@H]2C(=O)N1CCOCC1,"inconclusive: 1.84 µM [activator, full curve]",
O=S(=O)(Nc1ccc(O)c(Sc2nc3ccccc3s2)c1)c1ccc(F)cc1,,inactive: -2.4%
COc1ccc(CNCc2c(O)c(Cl)cc3c(C)c(C)c(=O)oc23)c(OC)c1,"inconclusive: 20.6 µM [activator, partial curve, poor fit]",
Cc1ccc(C2=NN(C(=O)c3ccccc3F)C(c3ccccc3F)C2)cc1 (stereo not drawn),"inconclusive: 29.1 µM [activator, single point]",

# An excerpt of these results, with tabs:
SMILES	Potency	re-replication activation
O=C(Cn1cnc2c(oc3nc4c(cc32)CCCC4)c1=O)Nc1cccc(Cl)c1	inconclusive: 16.4 µM [activator, partial curve, poor fit]	
S=C(NCc1ccncc1)Nc1cc(Cl)cc(Cl)c1	inconclusive: 29.1 µM [activator, single point]	
C[C@]12c3[nH]c4ccc(Cl)cc4c3CCN1C(=O)[C@@H](CC(=O)NCC13CC4CC(CC(C4)C1)C3)C[C@@H]2C(=O)N1CCOCC1	inconclusive: 1.84 µM [activator, full curve]	
